This passage reports binding results from doi:10.1101/2023.06.10.544440.

Protein sequences, listed by entry. Tags and fused reporters are not part of them. Lines headed by an entry give the natural chain unless they say otherwise; changes in a name come on top. Residues count along the entry.
UniProt Q9DFS6, 34-215: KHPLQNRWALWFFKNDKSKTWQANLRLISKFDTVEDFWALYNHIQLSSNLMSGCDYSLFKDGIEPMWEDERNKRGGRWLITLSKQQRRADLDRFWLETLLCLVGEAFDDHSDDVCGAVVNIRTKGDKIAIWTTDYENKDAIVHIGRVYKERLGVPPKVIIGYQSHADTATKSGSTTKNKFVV
UniProt Q66HY7, 44-224: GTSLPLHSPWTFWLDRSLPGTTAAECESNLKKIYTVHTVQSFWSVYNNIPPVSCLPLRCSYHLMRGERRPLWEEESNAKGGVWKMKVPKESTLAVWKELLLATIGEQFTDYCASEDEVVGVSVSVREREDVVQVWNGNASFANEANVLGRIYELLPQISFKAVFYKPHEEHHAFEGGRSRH
UniProt Q04637, 608-647: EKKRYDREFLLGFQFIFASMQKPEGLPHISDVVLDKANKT
UniProt Q13541, 50-83: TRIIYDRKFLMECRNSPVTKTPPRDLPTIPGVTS

Common to all, as to test: pull-down
For assay [1], the target named is T1, mouse eIF4E1B (63-244) (mouse) (UniProt Q3UTA9).
T1 sequence: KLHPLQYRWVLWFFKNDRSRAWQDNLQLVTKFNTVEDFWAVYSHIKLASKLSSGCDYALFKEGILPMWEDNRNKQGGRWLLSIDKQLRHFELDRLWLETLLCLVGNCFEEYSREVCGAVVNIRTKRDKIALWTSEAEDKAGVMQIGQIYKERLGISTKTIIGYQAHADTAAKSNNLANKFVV

Assay [2] deals with T2, human eIF4E1B (60-242) (human) (UniProt A6NMX2).
T2 sequence: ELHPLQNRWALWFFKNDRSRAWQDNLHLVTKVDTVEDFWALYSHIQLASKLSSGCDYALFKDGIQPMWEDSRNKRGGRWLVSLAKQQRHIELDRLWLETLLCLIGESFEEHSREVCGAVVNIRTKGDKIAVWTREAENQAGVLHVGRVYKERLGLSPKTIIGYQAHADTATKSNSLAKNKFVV

The target in assay [3] is zebrafish eIF4Ea (34-215) (zebrafish) (UniProt Q9DFS6).
Assay [4] addresses zebrafish eIF4E2 (52-236) (zebrafish).
Assay [5] addresses zebrafish eIF4E3 (44-224) (zebrafish) (UniProt Q66HY7).
The target of assay [6] is T3, mouse eIF4E1B (63-244) Lys108 to Glu (mouse) (UniProt Q3UTA9).
T3 sequence: T1 sequence with K46E

For assay [7], the target named is T4, mouse eIF4E1B (63-244) Lys112 to Asn (mouse) (UniProt Q3UTA9).
T4 sequence: T1 sequence with K50N

Numbering of substitutions follows the chain as printed. These are yes or no findings as the source states them, for the method shown. Binding seen in cells or lysates may run through a third protein. Some entries that bind do so weakly or less than the wild type.

Regarding “eIF4E-binding motif of human eIF4G (608-647) (from UniProt Q04637 608-647) (domain or fragment)”, the binding entry in assay [1] is reported as “no binding”; in assay [2], “no binding”; in assay [3] it was “binds”; in assay [4], “no binding”; in assay [5] it was “binds”.

On to “eIF4E-binding motif of human eIF4EBP1 (50-83) (from UniProt Q13541 50-83) (domain or fragment)”, for which the binding entry in assay [1], in assay [2] and in assay [3] was “binds” in each case.

PHRYTKEELLDIKELPHSKQRPSCLSEKYDSDGVWDP (domain or fragment, UniProt Q9NRA8 27-63) [eIF4E-binding motif of human eIF4ENIF1 (27-63)]: the binding result in assay [1], in assay [6], in assay [2], in assay [3] and in assay [7] was “binds” throughout.
